According to PubChem BioAssay AID540276 (National Center for Advancing Translational Sciences (NCATS), 2011):
About 5,400 (1.8%) of roughly 300,000 compounds were called active. The inconclusive results got no clear call from the source; some entries with a clear call stand among them for comparison. Calls follow the shape of the full dose curve; tested in HEK293 cells. Where the call is inconclusive, the potency comes from a doubtful curve fit.

Assay: qHTS for inhibitors of binding or entry into cells for Marburg Virus
Settings: Marburg virus pseudotyped entry inhibition, cell reporter; series mostly up to 37.8 µM
Potency is read from the fitted curve at half-maximal effect.

SMILES | Potency
Cc1sc(N)nc1C12CC3CC(CC(C3)C1)C2 | inconclusive: 14.1 µM [inhibitor, single point]
COc1cc(CN(C(=O)c2oc3ccccc3c2C)C2CCS(=O)(=O)C2)cc(OC)c1OC (centres undefined) | inactive
Nc1c(C(O)(C(F)(F)F)C(F)(F)F)cc(C(O)(C(F)(F)F)C(F)(F)F)c2ccccc12 | active: 11.2 µM
CC(C)CNC(=O)c1cccc(NC(=O)COc2ccc([N+](=O)[O-])cc2)c1 | inconclusive: 3.55 µM [inhibitor, full curve, poor fit]
Cc1cc2c(NC(=O)Nc3ccc(C(F)(F)F)cc3)cccc2nn1 | inconclusive: 8.91 µM [inhibitor, partial curve]
CN(C)CCCNc1ccc(S(N)(=O)=O)cc1[N+](=O)[O-] | inconclusive: 7.94 µM [activator, partial curve]
Cc1cc2cc(CN(Cc3ccco3)C(=S)NCC3CCCO3)c(=O)[nH]c2cc1C (centres undefined) | inconclusive: 12.6 µM [inhibitor, partial curve, poor fit]
CC(C)c1ccc(NC(=O)c2ccc(Br)o2)cc1 | inconclusive: 17.8 µM [inhibitor, single point]
Cc1ccc(OCc2nnc(SCC(=O)c3cccs3)n2-c2ccccc2)cc1C | inconclusive: 35.5 µM [inhibitor, single point]
CCCn1c(=O)c(C(=O)Nc2ccccc2C)c(O)c2ccccc21 | inactive
CCOC(=O)C1CCCN(C(=O)c2cc(Cl)ccc2Cl)C1 (centres undefined) | inconclusive: 1.64 µM [inhibitor, partial curve, poor fit]
Cc1cc(C)n2c(Br)c(CSc3nc4ccccc4s3)nc2n1 | inconclusive: 2.59 µM [activator, full curve, poor fit]
O=C(O)c1ccccc1-c1c2ccc(=O)cc-2oc2cc(O)ccc12 | active: 35.3 µM
CCC(SC1=Nc2ccccc2C2=NC(CC(C)C)C(=O)N12)C(=O)Nc1ccc2c(c1)OCO2 (centres undefined) | inconclusive: 2.31 µM [activator, partial curve]
O=C(COC(=O)C1CCC(=O)N1)Nc1ccccc1OC(F)F (centres undefined) | inactive
O=C(NCc1ccccc1Cl)C1CCC(CNS(=O)(=O)c2ccc(Br)s2)CC1 (centres undefined) | inconclusive: 3.98 µM [activator, partial curve, poor fit]
CC(C)CC(=O)Nc1cccc(-c2nc3ccccc3o2)c1 | inconclusive: 0.73 µM [activator, full curve, poor fit]
O=S(=O)(N1CCCCC1)N1CCN(c2cc(Cl)ccc2Cl)CC1 | inconclusive: 5.62 µM [inhibitor, full curve, poor fit]
Cc1cccc(-c2nc(Cn3c(SCc4cc(C)ccc4C)nc4ccncc43)c(C)o2)c1 | inactive
CCOC(=O)C1(CCc2ccccc2)CCN(C(=O)CCc2cnccn2)CC1 | inactive
O=[N+]([O-])c1ccc(C=Nc2cccc3ccccc23)s1 | inconclusive: 11.2 µM [inhibitor, partial curve, poor fit]
Cc1ccc(N(Cc2cccs2)C(=O)COc2ccccc2[N+](=O)[O-])cc1 | inconclusive: 22.4 µM [inhibitor, single point]

Already shown: an excerpt of the list.
SMILES | Potency
CCCn1c(=O)c(C(=O)Nc2ccccc2C)c(O)c2ccccc21 | inactive
CCOC(=O)C1CCCN(C(=O)c2cc(Cl)ccc2Cl)C1 (centres undefined) | inconclusive: 1.64 µM [inhibitor, partial curve, poor fit]
Cc1cc(C)n2c(Br)c(CSc3nc4ccccc4s3)nc2n1 | inconclusive: 2.59 µM [activator, full curve, poor fit]
O=C(O)c1ccccc1-c1c2ccc(=O)cc-2oc2cc(O)ccc12 | active: 35.3 µM

Next part.

SMILES | Potency
O=C(CSCc1ccc(F)cc1)NCc1cccs1 | inactive
O=C(c1ccco1)n1nc(-c2ccccc2)nc1NCc1ccccc1Cl | inconclusive: 12.6 µM [activator, single point]
CC(=O)Nc1ccc(-c2csc(NC(=O)C3CCN(S(=O)(=O)c4cccs4)CC3)n2)cc1 | inconclusive: 29.1 µM [inhibitor, single point]
CC1CCC(NC(=O)CC(C)(C)Cc2nc3ccccc3c(=O)[nH]2)CC1 (centres undefined) | inconclusive: 2.91 µM [inhibitor, partial curve]
CCOc1ccc(OCC)c(NC(=O)CN2CCC(NC(=O)c3cccc(F)c3)CC2)c1 | inconclusive: 7.3 µM [inhibitor, partial curve, poor fit]
Cc1ccc(Nc2c(-c3ccc(C)s3)nc3ncccn23)cc1 | inconclusive: 3.55 µM [activator, partial curve, poor fit]
Cc1ccc(C(=O)CC(c2cccs2)S(=O)(=O)c2ccc(C)cc2)cc1 (centres undefined) | inconclusive: 2.51 µM [activator, single point]
O=C(OCC(=O)N1CCCC1)c1cccc(Br)c1 | inactive
O=C(NCc1ccco1)C(=O)NCC1OCCN1S(=O)(=O)c1ccccc1 (centres undefined) | inconclusive: 18.4 µM [activator, single point]
COc1ccc(NC(=O)COc2ccc3c(c2)CCC3)cc1 | inconclusive: 1.26 µM [activator, partial curve, poor fit]
O=C(Nc1nc2n(n1)C(c1ccc(Cl)cc1)CC(c1ccc(Cl)cc1)N2)c1ccco1 (centres undefined) | inconclusive: 35.5 µM [inhibitor, single point]
O=c1c2cc(NC(=S)NCCCN3CCC(Cc4ccccc4)CC3)ccc2nc2n1CCCCC2 | active: 7.08 µM
CCOC(=O)C1=C(CSc2nc(-c3ccccc3)ccc2C#N)OC(N)=C(C#N)C1c1cccnc1 (centres undefined) | inactive
COc1ccccc1CC(=O)Nc1ccc(Cl)cc1C(=O)O | inactive
COC(=O)C1=C(c2cccc(OCc3ccccc3)c2)C[C@@H]2CC[C@H]1N2C(=O)NCc1cccc(C(F)(F)F)c1 | inactive
CC(OC(=O)/C(C#N)=C/c1ccc(N(C)C)cc1)C(=O)N(C)c1ccccc1 (centres undefined) | inconclusive: 6.31 µM [activator, full curve, poor fit]
COc1ccc(C(=O)COC(=O)CCCC(=O)Nc2cc(C(F)(F)F)ccc2Cl)cc1 | inconclusive: 3.16 µM [inhibitor, single point]
COC(=O)c1cc(Cl)ccc1NC(=O)CSc1ncc(S(=O)(=O)c2ccc(Br)cc2)c(=O)[nH]1 | inconclusive: 10 µM [inhibitor, partial curve, poor fit]
Cc1cc2nc(-c3ccc(SCc4ccccn4)nc3)[nH]c2cc1C | inconclusive: 22.4 µM [inhibitor, single point]
Cc1c(Cl)c(C(F)(F)F)nn1CC(=O)NCc1ccco1 | inconclusive: 14.1 µM [inhibitor, single point]
Cc1ccc(SC(C)C(=O)Nc2c(C)n(C)n(-c3ccccc3)c2=O)cc1 (centres undefined) | inactive
CC1(C)CC(=O)c2c(oc3c(Cl)cc(NS(=O)(=O)c4ccc(Br)cc4)cc23)C1 | inactive

SMILES | Potency
COc1ccc(S(=O)(=O)/N=C2\C=C(Nc3ccc(O)cc3)C(=O)c3ccccc32)cc1 | inconclusive: 3.98 µM [inhibitor, full curve, poor fit]
Cc1ccc2ccc(C3C(=O)c4ccccc4C3=O)nc2c1 | inconclusive: 0.92 µM [activator, partial curve, poor fit]
CCCCCCCCNc1ncnc2[nH]ncc12 | inconclusive: 3.98 µM [inhibitor, full curve]
O=C(NC1CCCCCC1)C1CCC(CNS(=O)(=O)c2ccc(Br)s2)CC1 (centres undefined) | inactive
Cc1cc(OCCn2cc(/C(N)=N/O)c3ccccc32)ccc1Cl | inconclusive: 18.3 µM [inhibitor, partial curve, poor fit]
Cc1ccc(S(=O)(=O)C2(C(=O)N3CCN(c4cc(C)ccc4C)CC3)CC2)cc1 | inconclusive: 14.1 µM [inhibitor, single point]
CCc1ccccc1NC(=O)[C@@H](c1ccccc1)N1Cc2ccccc2C1=O | inconclusive: 7.94 µM [inhibitor, partial curve, poor fit]
CC(C)[C@@H]1CC[C@@H](C)C[C@H]1OC(=O)C[n+]1cc(-c2ccc(Cl)cc2)n2c1CCCCC2 | inconclusive: 11.2 µM [inhibitor, partial curve, poor fit]
CC(=O)c1ccc(N2CCN(C(=O)CCc3nnc4n(C)c(=O)c5sccc5n34)CC2)cc1 | inactive
Clc1cccc(Cl)c1CN1CCN(c2ncccn2)CC1 | inconclusive: 10 µM [inhibitor, partial curve, poor fit]
CC(C)C(=O)Nc1ccc2nn(-c3ccccc3)nc2c1 | inconclusive: 0.891 µM [activator, partial curve, poor fit]
CCN(CC)CCNC(=O)c1ccc(NC(=O)c2cccc(S(=O)(=O)N3CCCCCC3)c2)cc1 | inconclusive: 0.141 µM [activator, single point]
C=CCc1ccccc1OCC(O)CNC (centres undefined) | inactive
CC(C)CCNC(=O)C(c1ccc(O)cc1)N(Cc1cccs1)C(=O)C1COc2ccccc2O1 (centres undefined) | inconclusive: 25.9 µM [inhibitor, partial curve, poor fit]
COc1ccc(/C=C/C(=O)NC(=S)N2CCN(c3ccccc3OC)CC2)cc1 | inconclusive: 3.16 µM [activator, full curve]
Cc1cc(/C=N/n2c(COc3ccccc3C)nc3ccccc3c2=O)c(O)c([N+](=O)[O-])c1 | inactive
COc1ccc(C2N=C(c3ccccc3)NC(c3ccccc3)=N2)cc1 | inconclusive: 0.184 µM [inhibitor, full curve, poor fit]
CCCCN1CCc2c([nH]c3ccccc23)C1=O | inconclusive: 3.98 µM [activator, single point]
O=C(COC(=O)c1ccco1)NC1CCCCC1 | inconclusive: 2.51 µM [activator, full curve, poor fit]
COc1ccc([C@H]2C[C@H](n3cc(-c4ccc(F)cc4)nn3)[C@@H](O)CN2CC2CCCCC2)cc1 | inconclusive: 7.91 µM [inhibitor, full curve, poor fit]
